Values quoted from earlier work in patent US11260029B2, “Fish feed compositions containing a neonicotinoid for preventing and treating parasite infections” (priority 2014, dated 2022).

Conditions: in-feed 1, 5 or 10 mg/kg/day for 7 days; medium and higher concentrations; WO 2014/064184; cited from earlier work

Structure (SMILES) | food uptake
O=[N+]([O-])/N=C1\NCCN1Cc1ccc(Cl)nc1 [Imidacloprid, (2E)-1-((6-chloropyridin-3-yl)methyl)-N-nitroimidazolidin-2-imine] | reduced to an unacceptable level
C/C(=N\C#N)N(C)Cc1ccc(Cl)nc1 [acetamiprid] | reduced to an unacceptable level
CN/C(=N\[N+](=O)[O-])NCc1cnc(Cl)s1 [clothianidin] | not affecting the feed uptake
